Most values lie at the floor of the assay. Slopes are relative: functional sequences can read slightly below zero.

For the data set, the system named is Saccharomyces cerevisiae PS128 hsf1 delta, HSF1(1-493) fusion. In words: growth estimate (transactivation domain function in HSF1 fusion, heat-shock survival) (a.u. (slope of normalised read count over time)); higher = stronger growth at 37°C, i.e. more transactivation activity. To be noted: library: random library. The protocol:
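Random 60-nt DNA library encoding peptides of up to 20 aa, fused to the C-terminus of yeast HSF1 residues 1-493 (C-terminal TAD deleted) and expressed from the native HSF1 promoter on a CEN plasmid in hsf1-deleted S. cerevisiae PS128. Cells were selected at 37°C on -trp 5-FOA plates for 0, 2, 4, 6 and 8 days and amplicons were sequenced. Growth estimate is the slope of a robust linear fit of total-sum-normalised read counts (normalised to the first time point) over time, using at least 2 replicates. Sequences are classed functional (TAD activity) above a threshold of -0.13, set from stop-codon control sequences.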
With INRTICGDR, the growth estimate is below -0.25.

In the case of SIMTRASAAVVLASSDH, the growth estimate was below -0.25. With GWSLQVPVTRLESSSRQRKL the figure was below -0.25; with SEGFVTSCAVSIKVRDSATT, below -0.25; with GLSIQERDIPDRELGPFGDP, below -0.25. Under CVLGGLNIVLVYDEGTSQNP stands below -0.25; under RLLLA, below -0.25. With HKRSGSPLSETEKGLGTKAG the figure was below -0.25; with VRLKPTKYVDALDPPRYAPL, below -0.25; with GPDIRKGIGEIPSPGASPAP, below -0.25.

With PGGLKSAVSSLDNRLW, the growth estimate was below -0.25. Under YANSHDFGFSPRSLVIW stands below -0.25; under CRFSC, below -0.25.

Consider NIERS, for which the growth estimate was below -0.25. For VIAARIYT, the growth estimate was below -0.25. Under VPCELLVLGSWVLVADIVLD stands below -0.25; under LLGTTIDRWYMAPSNLDRAI, below -0.25. Under RPRLVGFS stands below -0.25. Under VSE stands below -0.25; under LSAGAPVWRYKMSCGECWPV, below -0.25. For the substance VCLTKGDVGRDISRIWAWRG, the growth estimate was below -0.25.

As for GTVTAE, the growth estimate was below -0.25. Regarding AYSVEALTATISAPFSLNSG, the growth estimate was below -0.25. Consider SHAGKQYVRARCMTLLALSK, for which the growth estimate was below -0.25. Regarding PLGG, the growth estimate was -0.24. With FGTQVHDDYSAMLGYTWAYT the figure was 2.16; with STAPNIGRRLGAYCLLVRMI, below -0.25; with SIMWPSSLQTRDNLRISRFS, below -0.25. With LLGLRDGIGRRARVNDRETL the figure was below -0.25; with LPDDVHHIPSW, below -0.25.

IGVPL: the growth estimate was below -0.25.

Regarding LPIVYLWPS, the growth estimate was below -0.25. With QCGNVKGCQSEVS the figure was below -0.25; with NASLVRNALLARLNIGPARY, below -0.25. As to NVRGMAFRARASSGPGCSYT, the growth estimate was below -0.25.

For HHPRIFPIAYRNVSLGGPAA, the growth estimate is -0.246.

In the case of FNEIEHWQYNYPKKS, the growth estimate is below -0.25. Under ALSVR stands below -0.25; under RRTTSVYIASIISNIQVAKP, below -0.25. Under KPRFPIDGAKVVDGNPRHPE stands below -0.25; under SGGHALAGQSFPVAGL, below -0.25. With DHEGFRSARVHV the figure was below -0.25; with GKSGRSQAPEELEPRQPQSR, below -0.25.

On to AAAVDSEQL, for which the growth estimate is below -0.25.

With WWLSDRLMFCF, the growth estimate is below -0.25. Under LDTLSTRVSCHF stands below -0.25. With ARVLGVM the figure was below -0.25; with KETSNSKVRGSTRGSYSRPV, below -0.25; with LLGALTDV, below -0.25. Turning to TRTYARL, the growth estimate was below -0.25.

As to QREHKCAD, the growth estimate was below -0.25. With NERGVHDGQIGGP the figure was below -0.25; with LGSDMFNQFRSGFATRCRIY, below -0.25. As for YEGLPID, the growth estimate was below -0.25.

As to WGATGTFSMIRGSLLSIVIC, the growth estimate is below -0.25. With YLWSIPGRGIGHSFGIYKFI the figure was below -0.25. With CTPPIQRCIMISRVWVAEAL the figure was below -0.25; with ISFRGSTCQSWLGIANRPVR, below -0.25; with SDGRTQRRPDNSSLGLHE, below -0.25.

In the case of ELDQVRH, the growth estimate was below -0.25. As to RTMLALGLALKKSFCWGSGT, the growth estimate was below -0.25. With ECGDGTSYVR the figure was below -0.25; with NYWRE, -0.199.

Consider ASQRARVWAA, for which the growth estimate is below -0.25.

The values are drawn from the supplement of paper PMC5949888.
